# Measured data: PubChem BioAssay AID504764 (Drosophila RNAi Screening Center, 2011)
# Test: 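Genome-wide screen for regulators of Notch-driven gene expression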 (primary screen)
# Cell system: Drosophila Kc167 cells
# Knock-down reagent: long dsRNA against Drosophila genes
# Duration: about 5 days (4 days dsRNA, then 24 h after transfection)
# Treatment: transfection of constitutively active membrane-tethered Notch lacking the extracellular domain, read 24 h later
# Read-out: 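Light from a Notch-responsive E(spl)m3 luciferase reporter under active Notch, with control-promoter and no-Notch reporter wells to normalise; raw counts from paired wells a and b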
# Scale: induced reporter light, run 1, well a and induced reporter light, run 1, well b: higher = more light from the Notch target reporter with active Notch; control promoter light, run 1, well a and control promoter light, run 1, well b: higher = more light from the viral control promoter (cell number, transfection, viability); uninduced reporter light, run 1, well a: higher = more light from the Notch target reporter without active Notch
# Hit rule: 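Wells with low control signal or poorly matching duplicates excluded; duplicates averaged; per source plate, z beyond ±2 for induced/control log2 ratio or beyond ±1.8 for induced/uninduced marks a hit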
# Calls: active = modifier hit (raised or lowered Notch signal); inactive = not a hit
# In all, the deposit lists about 22,000 reagents; this is a random part of those with a known target gene and a result. Of all reagents, 403 (1.9%) are marked active. 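Unnormalised raw counts per well; ratio z-scores behind the hit calls and whether each hit raises or lowers signal are not deposited.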 The numbers tell different reagents against one gene apart. A plus sign joins genes that one reagent is predicted to hit. Not stated in the record: the amount of reagent.
gene,dsRNA no.,"induced reporter light, run 1, well a","induced reporter light, run 1, well b","control promoter light, run 1, well a","control promoter light, run 1, well b","uninduced reporter light, run 1, well a",Outcome
CG42354 + CG42353,1,60575,41815,44995,33170,7392,inactive
CG17110,1,1.91e5,2.26e5,2.43e5,1.82e5,15270,inactive
Srpk79D,1,1.55e5,1.42e5,75120,77945,8935,inactive
Srpk79D,2,97780,1.07e5,1.16e5,1.17e5,8260,inactive
rhi,1,1.22e5,83475,87140,1.00e5,10810,inactive
Rab9,1,49095,31975,41225,45400,2660,inactive
Atxn7,1,1.11e5,1.21e5,1.35e5,1.14e5,12532,inactive
Alg-2,1,42880,58820,91050,85935,2185,inactive
CG6800,1,1.80e5,1.68e5,1.94e5,2.17e5,11885,inactive
CG43394,1,1.54e5,1.63e5,1.39e5,1.37e5,10292,inactive
eIF4E4,1,1.15e5,1.34e5,1.20e5,1.01e5,6080,inactive
CG6865,1,2.01e5,2.22e5,3.74e5,2.88e5,12720,inactive
Arf4,1,1.34e5,1.74e5,1.61e5,1.59e5,9185,active
CG13484,1,2.62e5,1.98e5,3.21e5,2.64e5,5490,inactive
mthl14,1,1.93e5,1.60e5,1.78e5,1.42e5,16620,inactive
CG32642,1,64145,74675,82855,64170,5665,inactive
CG12912,1,7865,6965,9520,8680,1975,inactive
CG5906,1,1.18e5,1.45e5,1.73e5,1.36e5,7585,inactive
Aptx,1,2.50e5,2.02e5,2.35e5,2.59e5,18440,inactive
Whamy,1,99590,90170,95020,79205,7030,inactive
CG17738,1,45630,62350,54220,37525,4110,inactive
CG13239,1,1.40e5,89075,1.07e5,85655,7840,inactive
SCOT,1,81900,1.04e5,2.01e5,1.84e5,7515,inactive
Acp53C14b,1,1.10e5,93355,1.04e5,1.61e5,11320,inactive
magu,1,1.83e5,1.43e5,1.93e5,1.84e5,15738,inactive
CG12818,1,79905,80050,1.23e5,75930,47355,inactive
CG33655,1,86150,70275,80410,93165,7035,inactive
CG11961,1,85515,1.14e5,1.78e5,2.13e5,8340,inactive
Tsp29Fa,1,99665,1.47e5,97525,1.14e5,17062,inactive
lectin-24Db,1,99885,1.06e5,1.07e5,1.17e5,7505,inactive
dpr4,1,76185,85495,81980,57530,4150,inactive
dpr4,2,78470,82170,56075,53300,4500,inactive
Prx6a,1,1.56e5,1.43e5,1.68e5,1.76e5,19940,active
CG7402,1,1.50e5,1.35e5,2.14e5,1.93e5,6928,inactive
Pglym87,1,1.27e5,1.38e5,69555,76390,9040,inactive
gus,1,1.64e5,1.60e5,1.46e5,1.71e5,11685,inactive
gus,2,2.07e5,1.85e5,2.14e5,2.08e5,12060,inactive
Slbp,1,1.05e5,89205,1.80e5,1.37e5,12655,inactive
CG34148 + P5CDh2,1,45150,34110,58980,54195,6720,inactive
CG13033,1,1.73e5,1.87e5,1.89e5,1.55e5,6838,inactive
Rab23,1,92030,96560,87710,96355,7185,inactive
Mccc2,1,2.40e5,1.99e5,1.96e5,1.50e5,14015,inactive
Tep5Psi,1,1.26e5,70870,64890,1.35e5,4295,inactive
Tep5Psi,2,35095,27100,34980,66585,1940,inactive
CG42233,1,1.39e5,1.14e5,2.63e5,2.13e5,10090,inactive
CG42233,2,1.02e5,1.09e5,2.14e5,2.19e5,7625,inactive
CG9068,1,79505,56990,41120,58505,5285,inactive
CG17005,1,1.24e5,1.43e5,74905,87705,18100,inactive
Krn,1,1.57e5,1.65e5,2.04e5,1.77e5,8255,inactive
fipi,1,63820,63355,65085,68125,3795,inactive
